# Data from patent publication US6929685B2, “Alkylamine derivatives as antifouling agents” (Bayer Atiengesellschaft, priority 2001, dated 2005).
# Some entries share one result that the patent states for a list of compounds. For at least one compound, name, drawing or mass did not settle the structure.
# Key:
# hard fouling = experiment: Raft panel static immersion test of antifouling paints: hard fouling; conditions: Dutch harbor, sea water
# Source text: (§1) The prepared paints have been evaluated on can stability, adhesion and film defects. The antifouling performance has been tested by application of the paints on raft panels. At first the steel panels had been protected with a standard anticorrosive system for marine environments (300 μm in dft). The to be tested antifouling paint had been applied in 2 layers with a total dry film thickness between 200 and 300 μm. Finally the panels were subjected to a static immersion test on rafts at sea harbors in Holland. The paints were inspected for the presence of fouling (% of area covered with fouling organisms) and of film defects every two months. The tested paint formulations are represented in Table 1.
# (§2) Further explanations to Table 1: • 1. Model coatings of type 1 (MC-1A/B/C) are for the evaluation of the algicidal properties of the claimed structures at three different representative weight-% next to 35% cuprous oxide. Good performing references are model coating MC-2 and MC-3 [35% cuprous oxide+3% Seanine (MC-2) or 35% cuprous oxide+3% Irgarol (MC-3)]. Base level references are “cuprous oxide only” formulations [cuprous oxide only (35% (MC4) and 50% level (MC-5)]. • 2. Model coatings of type 6 and 7 are for the evaluation of the activity of the claimed structures against “hard fouling” in combination with two different types of algicides: claimed structure (1/2/4%; MC-6-A/B/C)+3% Seanine or claimed structure (1/2/4%; MC-7-A/B/C)+3% Irgarol). Base level references are “algicide only” formulations with 3% Seanine (MC-8) or 3% Irgarol (MC-9).
# (§3) 3. Model coatings of type 10 (MC-10A/B) evaluate the total spectrum of biocidal activity by using the claimed structure as only biocide at 2 levels (4 and 8 w %). Good performing references are “cuprous oxide only” formulations [cuprous oxide 35% (MC-4) and 50% (MC-5)]. As blank serves model coating 11 (MC-1 1) containing no biocide at all.
# The claimed structures were tested at several levels of dosage with and without an algicide as co-biocide. The following formulations were used for comparison: formulations with cuprous oxide, formulations with cuprous oxide and commercial co-biocides, a blank and two formulations that only contained the co-biocide and finally a commercial tributyltin-releasing self polishing system.
# An even better protection can be obtained by combining claimed structures with co-biocides like the algicides that are commonly used for antifoulings.
# algae = experiment: Raft panel static immersion test of antifouling paints: algae; conditions: Dutch harbor, sea water
# Source text: as §1, §2, §3
# The claimed structures were tested at several levels of dosage with and without an algicide as co-biocide. […]
# [1] = model coating 6A: 1% of compound + 3% Seanine
# [2] = model coating 6B: 2% of compound + 3% Seanine
# [3] = model coating 7A: 1% of compound + 3% Irgarol
# [4] = model coating 7B: 2% of compound + 3% Irgarol
# [5] = model coating 7C: 4% of compound + 3% Irgarol
# [6] = model coating 10A: 4% of compound as only biocide
SMILES,Performance (1 yr immersed) Hard fouling (hard fouling; [1]),Performance (1 yr immersed) Hard fouling (hard fouling; [2]),Performance (1 yr immersed) Hard fouling (hard fouling; [3]),Performance (1 yr immersed) Hard fouling (hard fouling; [4]),Performance (1 yr immersed) Hard fouling (hard fouling; [5]),Performance (1 yr immersed) Hard fouling (hard fouling; [6]),Performance (1 yr immersed) Algae (algae; model coating 1A: 35% Cu2O + 1% of compound),Performance (1 yr immersed) Algae (algae; [6]),Performance (1 yr immersed) Algae (algae; model coating 10B: 8% of compound as only biocide)
"COC(=O)NCCCCCCBr [Compound 2, N-methoxycarbonyl-6-bromohexylamine]",F (>3% of area covered),S (<3% of total area covered mainly edge effects.),F (>3% of area covered),S (<3% of total area covered mainly edge effects.),S (<3% of total area covered mainly edge effects.),S (<3% of total area covered mainly edge effects.),,,
"O=CNCCCCCCCCCC(Br)CBr (stereo not drawn) [Compound 3, N-formyl-10,11-dibromoundecylamine]",F (>3% of area covered),S (<3% of total area covered mainly edge effects.),F (>3% of area covered),S (<3% of total area covered mainly edge effects.),S (<3% of total area covered mainly edge effects.),S (<3% of total area covered mainly edge effects.),,,
"O=CNCCCCCCCCCCCBr [Compound 7, N-formyl-11-bromo-undecyl-1-amine]",F (>3% of area covered),S (<3% of total area covered mainly edge effects.),F (>3% of area covered),S (<3% of total area covered mainly edge effects.),S (<3% of total area covered mainly edge effects.),S (<3% of total area covered mainly edge effects.),S (<20% of area covered mainly edge effects.),S (<20% of area covered mainly edge effects.),S (<20% of area covered mainly edge effects.)
"C=CCCCCCCCCCNC=O [Compound 8, N-formyl-1-aminoundec-10-ene]",F (>3% of area covered),S (<3% of total area covered mainly edge effects.),F (>3% of area covered),S (<3% of total area covered mainly edge effects.),S (<3% of total area covered mainly edge effects.),S (<3% of total area covered mainly edge effects.),,,
"CCCCCCCCCCCNC=O [Compound 9, N-formyl-1-aminoundecane]",F (>3% of area covered),S (<3% of total area covered mainly edge effects.),F (>3% of area covered),S (<3% of total area covered mainly edge effects.),S (<3% of total area covered mainly edge effects.),S (<3% of total area covered mainly edge effects.),,,
